Results are given in words; binding and its absence hold for the method and conditions named. Binding seen in cells or lysates may run through a third protein. These calls come from enrichment with a bait or labelling near it, and not all partners need be listed. Sequences can lack the tags named with a protein.
T1: M2-flagged human RhoGDI2 (Rho GDP-dissociation inhibitor 2) (human) (UniProt P52566)
T1 sequence: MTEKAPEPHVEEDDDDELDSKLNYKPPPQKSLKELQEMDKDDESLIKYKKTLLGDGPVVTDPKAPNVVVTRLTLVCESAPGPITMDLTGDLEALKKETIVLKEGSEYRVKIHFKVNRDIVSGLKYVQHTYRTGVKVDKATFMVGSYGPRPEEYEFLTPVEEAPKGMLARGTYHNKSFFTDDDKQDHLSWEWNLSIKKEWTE

Protein sequences, listed by entry. Tags and fused reporters are not part of them.
UniProt Q8TEP8: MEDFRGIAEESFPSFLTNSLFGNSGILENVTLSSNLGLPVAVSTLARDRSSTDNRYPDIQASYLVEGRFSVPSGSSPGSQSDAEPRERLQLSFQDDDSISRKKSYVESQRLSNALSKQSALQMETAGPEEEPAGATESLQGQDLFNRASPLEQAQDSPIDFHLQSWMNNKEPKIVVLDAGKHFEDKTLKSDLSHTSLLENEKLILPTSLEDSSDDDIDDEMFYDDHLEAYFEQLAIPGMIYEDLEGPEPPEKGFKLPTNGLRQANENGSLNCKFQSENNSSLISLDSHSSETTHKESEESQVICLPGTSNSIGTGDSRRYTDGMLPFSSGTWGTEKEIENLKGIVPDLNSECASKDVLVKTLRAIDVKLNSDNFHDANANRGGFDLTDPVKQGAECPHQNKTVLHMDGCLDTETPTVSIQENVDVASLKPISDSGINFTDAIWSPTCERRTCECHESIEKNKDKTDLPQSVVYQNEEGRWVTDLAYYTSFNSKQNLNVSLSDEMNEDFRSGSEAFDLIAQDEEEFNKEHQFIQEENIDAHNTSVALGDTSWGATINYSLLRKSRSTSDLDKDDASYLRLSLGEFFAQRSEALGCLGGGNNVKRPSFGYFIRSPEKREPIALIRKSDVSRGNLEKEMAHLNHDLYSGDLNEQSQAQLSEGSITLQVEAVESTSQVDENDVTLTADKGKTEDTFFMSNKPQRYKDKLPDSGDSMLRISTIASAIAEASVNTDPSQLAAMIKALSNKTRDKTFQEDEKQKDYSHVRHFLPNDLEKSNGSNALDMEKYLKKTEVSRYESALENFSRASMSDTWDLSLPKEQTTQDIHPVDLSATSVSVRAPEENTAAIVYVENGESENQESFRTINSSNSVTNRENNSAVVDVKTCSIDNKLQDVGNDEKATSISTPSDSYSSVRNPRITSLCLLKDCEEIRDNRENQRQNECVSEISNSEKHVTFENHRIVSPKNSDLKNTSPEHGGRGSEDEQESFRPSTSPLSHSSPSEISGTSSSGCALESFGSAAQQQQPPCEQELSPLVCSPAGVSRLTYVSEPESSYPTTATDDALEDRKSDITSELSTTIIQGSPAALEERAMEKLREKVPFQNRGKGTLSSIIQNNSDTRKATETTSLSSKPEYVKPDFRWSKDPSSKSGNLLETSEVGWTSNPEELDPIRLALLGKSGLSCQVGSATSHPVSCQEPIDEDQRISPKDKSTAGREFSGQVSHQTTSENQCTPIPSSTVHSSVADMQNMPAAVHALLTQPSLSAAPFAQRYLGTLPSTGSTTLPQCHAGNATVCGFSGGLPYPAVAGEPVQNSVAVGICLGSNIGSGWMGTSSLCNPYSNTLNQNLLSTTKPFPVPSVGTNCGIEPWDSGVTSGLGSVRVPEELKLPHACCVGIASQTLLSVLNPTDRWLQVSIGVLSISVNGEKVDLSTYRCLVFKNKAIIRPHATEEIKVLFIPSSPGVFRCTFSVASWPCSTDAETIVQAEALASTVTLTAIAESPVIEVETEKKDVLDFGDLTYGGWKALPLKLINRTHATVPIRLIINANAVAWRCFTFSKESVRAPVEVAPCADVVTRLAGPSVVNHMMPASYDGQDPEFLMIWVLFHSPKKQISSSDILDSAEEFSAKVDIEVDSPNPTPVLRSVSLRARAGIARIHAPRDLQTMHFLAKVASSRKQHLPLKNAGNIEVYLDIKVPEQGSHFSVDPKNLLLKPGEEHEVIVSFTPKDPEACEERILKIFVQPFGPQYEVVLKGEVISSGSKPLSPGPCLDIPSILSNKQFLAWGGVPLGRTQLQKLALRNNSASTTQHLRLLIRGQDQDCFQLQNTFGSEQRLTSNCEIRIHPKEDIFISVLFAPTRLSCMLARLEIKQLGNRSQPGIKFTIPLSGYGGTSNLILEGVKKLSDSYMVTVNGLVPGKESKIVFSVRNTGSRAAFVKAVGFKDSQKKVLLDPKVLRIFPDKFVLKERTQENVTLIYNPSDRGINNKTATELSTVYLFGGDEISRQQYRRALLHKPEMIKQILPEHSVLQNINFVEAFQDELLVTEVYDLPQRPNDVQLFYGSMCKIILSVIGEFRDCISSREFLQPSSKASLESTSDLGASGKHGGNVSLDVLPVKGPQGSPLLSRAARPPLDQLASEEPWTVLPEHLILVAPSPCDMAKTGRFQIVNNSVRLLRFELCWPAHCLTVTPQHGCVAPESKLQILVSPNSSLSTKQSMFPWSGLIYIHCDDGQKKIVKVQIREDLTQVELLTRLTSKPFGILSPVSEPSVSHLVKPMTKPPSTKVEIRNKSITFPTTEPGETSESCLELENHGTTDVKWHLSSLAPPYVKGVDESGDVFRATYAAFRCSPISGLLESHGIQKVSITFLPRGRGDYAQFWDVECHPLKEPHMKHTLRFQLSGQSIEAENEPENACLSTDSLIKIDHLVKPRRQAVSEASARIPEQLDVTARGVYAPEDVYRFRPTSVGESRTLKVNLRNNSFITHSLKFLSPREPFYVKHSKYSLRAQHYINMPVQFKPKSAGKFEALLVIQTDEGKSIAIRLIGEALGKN
UniProt P11055: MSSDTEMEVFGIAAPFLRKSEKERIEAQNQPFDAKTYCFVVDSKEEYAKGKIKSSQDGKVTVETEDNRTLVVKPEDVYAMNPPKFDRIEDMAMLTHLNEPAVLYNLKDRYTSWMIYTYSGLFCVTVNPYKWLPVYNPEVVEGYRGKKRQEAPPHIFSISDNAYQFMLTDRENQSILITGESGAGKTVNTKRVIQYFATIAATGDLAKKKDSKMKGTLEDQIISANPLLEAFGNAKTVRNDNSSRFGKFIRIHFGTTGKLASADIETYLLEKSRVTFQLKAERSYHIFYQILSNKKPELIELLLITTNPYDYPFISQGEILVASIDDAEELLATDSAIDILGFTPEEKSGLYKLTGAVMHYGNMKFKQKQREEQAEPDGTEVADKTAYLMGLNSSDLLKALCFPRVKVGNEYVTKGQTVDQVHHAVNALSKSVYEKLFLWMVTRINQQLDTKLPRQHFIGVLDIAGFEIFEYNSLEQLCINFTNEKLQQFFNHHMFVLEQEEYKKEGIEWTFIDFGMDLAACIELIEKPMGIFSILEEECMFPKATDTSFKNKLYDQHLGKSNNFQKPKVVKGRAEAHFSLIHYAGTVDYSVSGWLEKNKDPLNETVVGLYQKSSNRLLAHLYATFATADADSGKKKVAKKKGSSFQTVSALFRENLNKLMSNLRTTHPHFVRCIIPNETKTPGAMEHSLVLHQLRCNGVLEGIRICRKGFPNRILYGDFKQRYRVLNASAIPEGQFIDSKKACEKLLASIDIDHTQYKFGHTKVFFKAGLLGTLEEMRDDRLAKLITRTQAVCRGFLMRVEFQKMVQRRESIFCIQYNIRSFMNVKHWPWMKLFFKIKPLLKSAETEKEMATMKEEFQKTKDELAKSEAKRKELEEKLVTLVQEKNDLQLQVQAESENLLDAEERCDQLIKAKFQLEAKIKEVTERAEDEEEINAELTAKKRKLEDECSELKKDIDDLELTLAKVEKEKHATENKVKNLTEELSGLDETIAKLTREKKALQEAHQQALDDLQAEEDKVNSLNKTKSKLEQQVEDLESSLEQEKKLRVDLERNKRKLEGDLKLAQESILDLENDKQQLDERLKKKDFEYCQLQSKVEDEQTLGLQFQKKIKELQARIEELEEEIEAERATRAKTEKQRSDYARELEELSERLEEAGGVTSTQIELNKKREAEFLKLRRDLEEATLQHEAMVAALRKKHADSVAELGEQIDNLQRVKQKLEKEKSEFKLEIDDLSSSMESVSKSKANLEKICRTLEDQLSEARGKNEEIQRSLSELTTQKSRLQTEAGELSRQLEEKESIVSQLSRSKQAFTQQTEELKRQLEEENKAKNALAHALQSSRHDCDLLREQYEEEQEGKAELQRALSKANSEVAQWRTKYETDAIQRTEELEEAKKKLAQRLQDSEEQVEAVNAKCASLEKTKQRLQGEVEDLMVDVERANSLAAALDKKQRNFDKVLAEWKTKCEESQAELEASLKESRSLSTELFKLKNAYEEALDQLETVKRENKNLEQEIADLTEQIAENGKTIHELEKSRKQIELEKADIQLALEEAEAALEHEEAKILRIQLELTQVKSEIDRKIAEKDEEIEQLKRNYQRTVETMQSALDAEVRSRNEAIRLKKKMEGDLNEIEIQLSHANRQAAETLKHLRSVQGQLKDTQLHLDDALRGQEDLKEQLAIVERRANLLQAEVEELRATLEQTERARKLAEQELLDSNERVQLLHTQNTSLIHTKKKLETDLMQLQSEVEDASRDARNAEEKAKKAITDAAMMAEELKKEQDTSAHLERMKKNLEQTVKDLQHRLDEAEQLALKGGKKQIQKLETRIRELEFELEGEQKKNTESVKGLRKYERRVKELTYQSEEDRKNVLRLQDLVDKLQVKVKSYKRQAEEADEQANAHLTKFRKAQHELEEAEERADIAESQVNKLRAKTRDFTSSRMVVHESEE
UniProt Q8IZD9: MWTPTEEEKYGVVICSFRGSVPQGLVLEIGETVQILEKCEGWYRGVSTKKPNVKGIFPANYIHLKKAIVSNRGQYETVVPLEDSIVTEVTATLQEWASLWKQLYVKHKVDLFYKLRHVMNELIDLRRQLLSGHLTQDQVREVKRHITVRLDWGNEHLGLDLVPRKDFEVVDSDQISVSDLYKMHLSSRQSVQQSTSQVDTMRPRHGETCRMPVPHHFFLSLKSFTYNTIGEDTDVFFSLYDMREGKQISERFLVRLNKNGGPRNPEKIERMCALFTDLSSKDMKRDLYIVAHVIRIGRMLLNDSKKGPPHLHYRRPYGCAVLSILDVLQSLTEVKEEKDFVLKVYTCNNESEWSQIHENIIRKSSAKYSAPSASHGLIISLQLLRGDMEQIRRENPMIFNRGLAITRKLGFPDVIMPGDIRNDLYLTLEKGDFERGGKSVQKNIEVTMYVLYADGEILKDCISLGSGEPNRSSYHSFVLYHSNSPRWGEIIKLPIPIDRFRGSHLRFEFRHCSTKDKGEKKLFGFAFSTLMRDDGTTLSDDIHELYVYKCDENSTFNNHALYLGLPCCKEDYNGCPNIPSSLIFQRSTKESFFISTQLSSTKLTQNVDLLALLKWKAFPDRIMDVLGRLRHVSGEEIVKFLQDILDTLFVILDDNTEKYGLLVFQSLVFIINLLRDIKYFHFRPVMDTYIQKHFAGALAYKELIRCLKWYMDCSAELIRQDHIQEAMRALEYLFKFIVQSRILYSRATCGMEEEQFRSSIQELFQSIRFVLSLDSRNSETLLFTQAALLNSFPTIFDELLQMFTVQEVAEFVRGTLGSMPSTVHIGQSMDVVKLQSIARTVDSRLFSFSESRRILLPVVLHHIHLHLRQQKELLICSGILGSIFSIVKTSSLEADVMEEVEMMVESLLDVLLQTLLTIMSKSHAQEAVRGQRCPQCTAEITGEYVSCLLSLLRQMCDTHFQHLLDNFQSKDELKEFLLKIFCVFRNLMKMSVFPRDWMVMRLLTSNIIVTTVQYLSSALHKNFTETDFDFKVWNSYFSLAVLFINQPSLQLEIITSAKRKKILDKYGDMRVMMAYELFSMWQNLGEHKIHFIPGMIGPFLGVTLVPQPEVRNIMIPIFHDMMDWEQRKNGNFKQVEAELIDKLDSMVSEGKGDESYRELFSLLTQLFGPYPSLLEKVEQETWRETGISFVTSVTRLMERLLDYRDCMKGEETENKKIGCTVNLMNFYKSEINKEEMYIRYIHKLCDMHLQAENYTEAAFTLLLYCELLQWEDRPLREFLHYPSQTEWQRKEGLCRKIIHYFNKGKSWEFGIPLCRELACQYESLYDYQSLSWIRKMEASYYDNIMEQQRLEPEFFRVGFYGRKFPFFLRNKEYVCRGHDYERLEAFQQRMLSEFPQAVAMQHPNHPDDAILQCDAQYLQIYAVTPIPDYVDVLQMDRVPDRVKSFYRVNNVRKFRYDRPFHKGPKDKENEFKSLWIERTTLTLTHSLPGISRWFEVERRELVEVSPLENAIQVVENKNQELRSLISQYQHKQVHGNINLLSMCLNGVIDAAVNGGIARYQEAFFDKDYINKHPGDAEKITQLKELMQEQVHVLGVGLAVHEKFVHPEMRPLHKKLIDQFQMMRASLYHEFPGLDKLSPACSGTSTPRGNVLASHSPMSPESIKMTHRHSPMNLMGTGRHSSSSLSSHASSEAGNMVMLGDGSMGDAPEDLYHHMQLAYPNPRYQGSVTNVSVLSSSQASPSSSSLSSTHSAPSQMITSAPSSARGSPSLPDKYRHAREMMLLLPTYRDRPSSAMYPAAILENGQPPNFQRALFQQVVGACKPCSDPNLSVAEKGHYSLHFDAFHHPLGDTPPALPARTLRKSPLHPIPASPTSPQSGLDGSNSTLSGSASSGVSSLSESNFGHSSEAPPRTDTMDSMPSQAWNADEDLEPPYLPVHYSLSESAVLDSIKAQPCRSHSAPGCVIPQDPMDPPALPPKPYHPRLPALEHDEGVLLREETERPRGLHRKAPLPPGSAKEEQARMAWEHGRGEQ

B1: Rho GTPase-activating protein 6 (protein, UniProt O43182 1-974)
chain: MSAQSLLHSVFSCSSPASSSAASAKGFSKRKLRQTRSLDPALIGGCGSDEAGAEGSARGATAGRLYSPSLPAESLGPRLASSSRGPPPRATRLPPPGPLCSSFSTPSTPQEKSPSGSFHFDYEVPLGRGGLKKSMAWDLPSVLAGPASSRSASSILCSSGGGPNGIFASPRRWLQQRKFQSPPDSRGHPYVVWKSEGDFTWNSMSGRSVRLRSVPIQSLSELERARLQEVAFYQLQQDCDLSCQITIPKDGQKRKKSLRKKLDSLGKEKNKDKEFIPQAFGMPLSQVIANDRAYKLKQDLQRDEQKDASDFVASLLPFGNKRQNKELSSSNSSLSSTSETPNESTSPNTPEPAPRARRRGAMSVDSITDLDDNQSRLLEALQLSLPAEAQSKKEKARDKKLSLNPIYRQVPRLVDSCCQHLEKHGLQTVGIFRVGSSKKRVRQLREEFDRGIDVSLEEEHSVHDVAALLKEFLRDMPDPLLTRELYTAFINTLLLEPEEQLGTLQLLIYLLPPCNCDTLHRLLQFLSIVARHADDNISKDGQEVTGNKMTSLNLATIFGPNLLHKQKSSDKEFSVQSSARAEESTAIIAVVQKMIENYEALFMVPPDLQNEVLISLLETDPDVVDYLLRRKASQSSSPDMLQSEVSFSVGGRHSSTDSNKASSGDISPYDNNSPVLSERSLLAMQEDAAPGGSEKLYRVPGQFMLVGHLSSSKSRESSPGPRLGKDLSEEPFDIWGTWHSTLKSGSKDPGMTGSSGDIFESSSLRAGPCSLSQGNLSPNWPRWQGSPAELDSDTQGARRTQAAAPATEGRAHPAVSRACSTPHVQVAGKAERPTARSEQYLTLSGAHDLSESELDVAGLQSRATPQCQRPHGSGRDDKRPPPPYPGPGKPAAAAAWIQGPPEGVETPTDQGGQAAEREQQVTQKKLSSANSLPAGEQDSPRLGDAGWLDWQRERWQIWELLSTDNPDALPETLV
B2: Dynein intermediate chain 2; axonemal (protein, UniProt Q9GZS0 1-605)
chain: MEIVYVYVKKRSEFGKQCNFSDRQAELNIDIMPNPELAEQFVERNPVDTGIQCSISMSEHEANSERFEMETRGVNHVEGGWPKDVNPLELEQTIRFRKKVEKDENYVNAIMQLGSIMEHCIKQNNAIDIYEEYFNDEEAMEVMEEDPSAKTINVFRDPQEIKRAATHLSWHPDGNRKLAVAYSCLDFQRAPVGMSSDSYIWDLENPNKPELALKPSSPLVTLEFNPKDSHVLLGGCYNGQIACWDTRKGSLVAELSTIESSHRDPVYGTIWLQSKTGTECFSASTDGQVMWWDIRKMSEPTEVVILDITKKEQLENALGAISLEFESTLPTKFMVGTEQGIVISCNRKAKTSAEKIVCTFPGHHGPIYALQRNPFYPKNFLTVGDWTARIWSEDSRESSIMWTKYHMAYLTDAAWSPVRPTVFFTTRMDGTLDIWDFMFEQCDPTLSLKVCDEALFCLRVQDNGCLIACGSQLGTTTLLEVSPGLSTLQRNEKNVASSMFERETRREKILEARHREMRLKEKGKAEGRDEEQTDEELAVDLEALVSKAEEEFFDIIFAELKKKEADAIKLTPVPQQPSPEEDQVVEEGEEAAGEEGDEEVEEDLA

Molecular target: T1, M2-flagged human RhoGDI2 (Rho GDP-dissociation inhibitor 2) (human)
Test: affinity purification with mass spectrometry; lysates of 10^7 U-2 OS cells expressing N-terminally or C-terminally flagged RhoGDI2 (control: empty pcDNA4/T0 cells) immunoprecipitated with anti-M2 FLAG antibody; immune complexes analysed by mass spectrometry; n = 2 per condition

binding | Molecule
binds | Centrosomal protein of 192 kDa (from UniProt Q8TEP8 1-2537)
binds | Myosin-3 (from UniProt P11055 1-1940)
binds | Dynein heavy chain 14; axonemal (from UniProt Q0VDD8 1-3507)
binds | Dynein heavy chain 11; axonemal (from UniProt Q96DT5 1-4516)
binds | Dynein heavy chain 9; axonemal (from UniProt Q9NYC9 1-4486)
binds | Dedicator of cytokinesis protein 3 (from UniProt Q8IZD9 1-2030)
binds | Xin actin-binding repeat-containing protein 2 (from UniProt A4UGR9 1-3374)
binds | Intersectin-1 (from UniProt Q15811 1-1721)
binds | B1
binds | B2
